# From the supplement of paper PMC7824004
# This is one part of the list. The data scatter; read single values as rough.
# Test system: Candida albicans SN425
# Assay: biofilm OD600 B-score; higher = more biofilm (less inhibition)
# Conditions: 10 µM; assay detail: High-throughput adherence inhibition optical density biofilm assay with C. albicans SN425 in RPMI-1640/MOPS pH 7.0, 384-well plates. …
# Description: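 High-throughput adherence inhibition optical density biofilm assay with C. albicans SN425 in RPMI-1640/MOPS pH 7.0, 384-well plates. Compound (10 µM) was present only during the 90 min adherence step, then washed out, and the biofilm grew 24 h without compound. Biofilm was read as OD600 after removing the media. Scores are the difference from the mean in standard deviations and the plate B-score.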
row,Compound,biofilm OD600 B-score
1,Cc1cc(C)c(OCC(O)CN2CCOCC2)c(C)c1 (stereo unspecified),2.33
2,CCc1ccc(NS(=O)(=O)c2cc(OC)ccc2OC)cc1,0.365
3,CCc1c(C)nc2cc(-c3ccc(Cl)cc3)[nH]n2c1=O,1.49
4,Cc1cccc(N2CCN(Cc3ccsc3)CC2)c1C,1.32
5,O=C(Nc1cccc(Cl)c1)N1CCCC1,-4.21
6,Cc1cccc(C)c1OCCCN(C)C,-1.22
7,Cc1nc2ccccc2c(=O)n1Cc1cccnc1,0.715
8,CC(C)(C)c1ccc(S(=O)(=O)N2CCNCC2)cc1,-0.107
9,Cc1oc(CC(C)C)c(CN2CCCC2)c1C(=O)O,2.43
10,Cc1cc(S(=O)(=O)Nc2ccncc2)c(C)cc1Br,-0.00203
11,COc1ccc(C(=O)Nc2ccccc2F)cc1S(=O)(=O)N1CCOCC1,0.415
12,O=C(NCC1CCCO1)NC1CCCCC1 (stereo unspecified),-0.111
13,COCCNC(=O)Nc1ccc2nc(-c3ccccn3)c(-c3ccccn3)nc2c1,1.29
14,O=[N+]([O-])c1ccccc1CN1CCN(c2ccccn2)CC1,-1.01
15,Cc1cccc(NC(=O)c2ccc(F)cc2)c1C(=O)O,2.95
16,Cc1cccc(C2NCCc3c2[nH]c2ccccc32)c1 (stereo unspecified),-1.18

# Sorted by SMILES length (descending): part of the list above
row,Compound,biofilm OD600 B-score
2,CCc1ccc(NS(=O)(=O)c2cc(OC)ccc2OC)cc1,0.365
16,Cc1cccc(C2NCCc3c2[nH]c2ccccc32)c1 (stereo unspecified),-1.18
6,Cc1cccc(C)c1OCCCN(C)C,-1.22
